system: T1, laccase; test: steady-state oxidation kinetics (Km, Lineweaver-Burk); assay type: biochemical, Pleurotus ostreatus
T1 construct: purified native extracellular laccase from strain HP-1, 68,420 Da

First: CCn1c(=NN=c2sc3cc(S(=O)(=O)O)ccc3n2CC)sc2cc(S(=O)(=O)O)ccc21 [ABTS, 2,2′-azino-bis-3-ethyl-benzthiazoline-6-sulphonic acid]
Second: COc1cc(-c2ccc(N)c(OC)c2)ccc1N [O-dianisidine]
The Km of the first is 2-fold higher: 46.5 mM for the first, 23.5 mM for the second.

`COc1ccccc1O` [Guaiacol] gave a Km of 100 mM.
